Source: publication PMC4813464
Results are given in words; binding and its absence hold for the method and conditions named. Some entries that bind do so weakly or less than the wild type. Tags and fused reporters may be left off the sequences shown.

Amino acid sequences for entries named in this document (tags omitted).
UniProt P04258: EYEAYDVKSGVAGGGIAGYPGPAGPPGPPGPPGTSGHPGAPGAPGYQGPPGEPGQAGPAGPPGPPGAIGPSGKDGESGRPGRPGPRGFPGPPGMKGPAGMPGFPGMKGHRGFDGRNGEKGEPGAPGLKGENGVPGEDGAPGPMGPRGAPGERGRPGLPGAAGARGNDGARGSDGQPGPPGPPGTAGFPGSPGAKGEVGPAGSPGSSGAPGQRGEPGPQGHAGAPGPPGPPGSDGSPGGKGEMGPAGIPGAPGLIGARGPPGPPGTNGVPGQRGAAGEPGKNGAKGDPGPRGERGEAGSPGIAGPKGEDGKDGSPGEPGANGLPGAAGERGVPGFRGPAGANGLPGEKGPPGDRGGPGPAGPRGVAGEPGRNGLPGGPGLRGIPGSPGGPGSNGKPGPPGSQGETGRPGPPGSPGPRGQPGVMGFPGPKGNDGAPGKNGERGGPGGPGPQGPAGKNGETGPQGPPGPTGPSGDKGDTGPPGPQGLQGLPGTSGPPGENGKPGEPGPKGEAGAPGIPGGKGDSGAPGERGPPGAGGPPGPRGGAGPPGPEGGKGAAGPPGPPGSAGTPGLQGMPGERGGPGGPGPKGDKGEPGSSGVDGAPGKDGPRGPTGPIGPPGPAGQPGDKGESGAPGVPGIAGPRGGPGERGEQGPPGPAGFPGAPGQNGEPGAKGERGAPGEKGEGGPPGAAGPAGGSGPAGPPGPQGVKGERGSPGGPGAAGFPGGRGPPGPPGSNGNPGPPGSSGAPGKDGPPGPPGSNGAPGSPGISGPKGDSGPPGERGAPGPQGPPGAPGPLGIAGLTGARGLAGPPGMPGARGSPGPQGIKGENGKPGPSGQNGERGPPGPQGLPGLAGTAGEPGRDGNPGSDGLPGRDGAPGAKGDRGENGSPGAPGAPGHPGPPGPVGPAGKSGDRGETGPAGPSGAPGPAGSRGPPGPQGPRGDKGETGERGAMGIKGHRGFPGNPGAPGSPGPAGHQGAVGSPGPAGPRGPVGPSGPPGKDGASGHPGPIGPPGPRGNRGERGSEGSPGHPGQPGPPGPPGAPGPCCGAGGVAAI

What was measured:
[1] = molecular target: Collagen type III, pepsin-extracted from bovine skin (bovine) (UniProt P04258); assay: ELISA; competitive solid-phase binding assay: bovine collagen type III coated at 10 μg/ml; DDR-Fc at 3 μg/ml (43 nM) pre-incubated 1 h at room temperature with collagen samples at 0, 0.3, 1.3, 5 and 10 μM, then 3 h on the plate; anti-Fc detection, A450; both purified
[2] = molecular target: Triple-helical peptide GPC(GPP)5-GPRGQOGVMGFP-(GPP)5GPC-NH2 (human); assay: ELISA; solid-phase binding assay: triple-helical peptides coated at 10 μg/ml on 96-well plates; DDR1-Fc or DDR2-Fc added for 3 h; anti-human Fc-HRP detection, A492; one-site fit; both purified
[3] = molecular target: Triple-helical peptide GPC(GPP)5-…O-(GPP)5GPC-NH2 (human); assay: as above
[4] = molecular target: Triple-helical peptide GPC(GPP)5-GPRGQOGVMGFO-(GPP)5GPC-NH2 (human); assay: as above

Measured: binding

B1: DDR2-Fc (recombinant human discoidin domain receptor 2 ectodomain, Fc-tagged) (Fc fusion, UniProt Q16832 22-399)
chain: KAQVNPAICRYPLGMSGGQIPDEDITASSQWSESTAAKYGRLDSEEGDGAWCPEIPVEPDDLKEFLQIDLHTLHFITLVGTQGRHAGGHGIEFAPMYKINYSRDGTRWISWRNRHGKQVLDGNSNPYDIFLKDLEPPIVARFVRFIPVTDHSMNVCMRVELYGCVWLDGLVSYNAPAGQQFVLPGGSIIYLNDSVYDGAVGYSMTEGLGQLTDGVSGLDDFTQTHEYHVWPGYDYVGWRNESATNGYIEIMFEFDRIRNFTTMKVHCNNMFAKGVKIFKEVQCYFRSEASEWEPNAISFPLVLDDVNPSARFVTVPLHHRMASAIKCQYHFADTWMMFSEITFQSDAAMYNNSEALPTSPMAPTTYDPMLKVDDSNTR
binds: [1] | [2] | [3] | [4]
